PubChem BioAssay AID602196 | INSERM | 2012
Aim: 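Knock-downs that protect lung cancer cells from cisplatin or sensitise them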. System: human A549 lung cancer cells. Reagents: siRNA pair against human genes. Timing: 48 h transfection before cisplatin; time from cisplatin to read-out not stated. Conditions: cisplatin at a dose killing half of control-siRNA cells; exact dose and duration not given. Detection: 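Shift in cisplatin death relative to control siRNA, from -50 (all cells die) to +50 (no cells die); siRNAs harmful on their own scored 0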. Scale: two-siRNA summed score (-2 to +2): higher = both siRNAs protect from cisplatin killing; -2 means both sensitise. Hit rule: 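siRNAs harmful alone (LDH or WST-1) get 0; others get +1 for less and -1 for more cisplatin killing; genes are active when the two siRNAs give the same sign, summing to ±2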. Calls: active = both siRNAs shift cisplatin killing the same way; inactive = no consistent shift, or siRNA harmful alone.
In all, the deposit lists about 23,000 reagents; shown is an unselected part. 455 of them (2%) were called active. 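Active includes both protection and sensitisation; some change values fall well beyond the stated -50 to +50 range.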 Entries without a mark were called inactive. Further read-outs or replicates are left out here. The record does not give: the amount of reagent.

ZNF257
- two-siRNA summed score (-2 to +2): 0

PTK2
- two-siRNA summed score (-2 to +2): 1

UBOX5
- two-siRNA summed score (-2 to +2): 0

TDRD6
- two-siRNA summed score (-2 to +2): 1

KCTD18
- two-siRNA summed score (-2 to +2): 0

CRELD1
- two-siRNA summed score (-2 to +2): 0

ATP6V1G3
- two-siRNA summed score (-2 to +2): 0

AVL9
- two-siRNA summed score (-2 to +2): 1

LOC441742
- two-siRNA summed score (-2 to +2): -1

LOC387775
- two-siRNA summed score (-2 to +2): 0

PLBD2
- two-siRNA summed score (-2 to +2): -1

LINC01951
- two-siRNA summed score (-2 to +2): -1

PTGR3
- two-siRNA summed score (-2 to +2): 0

COMTD1
- two-siRNA summed score (-2 to +2): 0

BRF1
- two-siRNA summed score (-2 to +2): 0

ZSCAN25
- two-siRNA summed score (-2 to +2): 0

MAF
- two-siRNA summed score (-2 to +2): 0

BAG2
- two-siRNA summed score (-2 to +2): 1

VCX
- two-siRNA summed score (-2 to +2): 0

LINC00656
- two-siRNA summed score (-2 to +2): -1

FAM217B
- two-siRNA summed score (-2 to +2): 0

CNTROB
- two-siRNA summed score (-2 to +2): 0

KIAA1889
- two-siRNA summed score (-2 to +2): 0

LOC389801
- two-siRNA summed score (-2 to +2): 0

COL22A1
- two-siRNA summed score (-2 to +2): 0

CLEC2B
- two-siRNA summed score (-2 to +2): 0

MBTPS1
- two-siRNA summed score (-2 to +2): 0

RTL4
- two-siRNA summed score (-2 to +2): 1

PLCXD2
- two-siRNA summed score (-2 to +2): 1

CELF2-AS2
- two-siRNA summed score (-2 to +2): 0

RABEP1
- two-siRNA summed score (-2 to +2): 0

In a second layout: results already given
ZNF257 → two-siRNA summed score (-2 to +2) = 0
PTK2 → two-siRNA summed score (-2 to +2) = 1
UBOX5 → two-siRNA summed score (-2 to +2) = 0
